Experimental findings from PMC6378214 are described below.

Sequences of proteins named here, by UniProt entry; tags and fusion partners are left off.
UniProt P60903: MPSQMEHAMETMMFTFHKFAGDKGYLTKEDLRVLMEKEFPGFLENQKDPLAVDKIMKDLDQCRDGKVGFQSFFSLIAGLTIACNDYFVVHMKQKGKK
UniProt P07355: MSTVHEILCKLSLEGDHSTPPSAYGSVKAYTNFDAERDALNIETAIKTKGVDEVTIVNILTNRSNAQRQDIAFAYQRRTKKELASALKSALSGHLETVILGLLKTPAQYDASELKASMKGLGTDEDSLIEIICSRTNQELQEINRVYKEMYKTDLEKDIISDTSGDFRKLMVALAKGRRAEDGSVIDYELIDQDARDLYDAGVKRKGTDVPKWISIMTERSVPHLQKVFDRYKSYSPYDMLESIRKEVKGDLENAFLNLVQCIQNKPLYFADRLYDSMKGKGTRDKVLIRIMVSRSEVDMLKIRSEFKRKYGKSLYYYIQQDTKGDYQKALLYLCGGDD

Experiment [1] deals with S100A10 (human (endogenous in HCC cell lines)) (UniProt P60903). Briefly: co-IP; precipitation with S100A10 antibody in ANXA2 overexpressing cells.
For experiment [2], the target named is Annexin A2 (ANXA2), endogenous (human (endogenous in HCC cell lines)) (UniProt P07355). The experiment in a line: co-IP; ANXA2 precipitated, S100A10 detected; LUCAT1 knockdown cells and LUCAT1 overexpressing cells.

These are yes or no findings as the source states them, for the method shown. In cells and extracts the contact can be indirect. Some binding calls cover weakened binding; strength is not graded here.

Take “Annexin A2 (ANXA2), overexpressed full-length (from UniProt P07355 1-339)”: the binding result in experiment [1] was “binds”.
S100A10 (from UniProt P60903 1-97): the binding entry in experiment [2] is on record as “binds”.
